Results on 8 compounds are retold here after the supplement of paper PMC4604168 (melanoma cell lines).

This is one part of the list. Single values are uncertain, as repeats are few or missing.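 The apoptosis fraction was the count of cleaved-PARP antibody-stained nuclei relative to all DNA-stained nuclei, imaged in 1,536-well plates. Screening doses were set so most cells survived, and baseline and induced cleaved-PARP levels vary greatly across cell lines.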

Common to all, as to experiment: cleaved PARP positive nuclei fraction relative to DMSO control; melanoma cells; higher = more apoptosis
What all share (conditions): library dose: low library concentration; 72 h

Experiment [1] has as its system COLO792.
Experiment [2] relates to COLO800.
Experiment [3] deals with COLO829.
The subject of experiment [4] is G361.
Experiment [5] deals with IPC-298.
Experiment [6] has as its system IST-MEL1.
Experiment [7] relates to LB2518-MEL.
Experiment [8] has as its system LOXIMVI.

`NC1(c2ccc(-c3nc4ccn5c(=O)[nH]nc5c4cc3-c3ccccc3)cc2)CCC1` + Cc1cc(SCc2sc(-c3ccc(C(F)(F)F)c(F)c3)nc2C)ccc1OCC(=O)O [GW0742] (first compound 0.4 µM, partner dose 2 µM): the “cleaved PARP positive nuclei fraction” value was determined as 124% in experiment [1]; 36.9% in experiment [2]; 81.9% in experiment [3]; 130% in experiment [4]; 94.2% in experiment [5]; 166% in experiment [6]. The “cleaved PARP positive nuclei fraction” value in experiment [7] was found to be 78.9%; in experiment [8], 39.6%.

As for `N.N.[Cl][Pt][Cl]` [cisplatin] + O=S(=O)(c1ccccc1)N(CC(F)(F)F)c1ccc(C(O)(C(F)(F)F)C(F)(F)F)cc1 [T0901317] (first compound 1.6 µM, partner dose 1.4 µM), the “cleaved PARP positive nuclei fraction” value in experiment [1] worked out at 127%; in experiment [2], 170%; in experiment [3], 66.6%; in experiment [4] it was 171%; in experiment [5], 101%; in experiment [6], 61.3%. The entries for the “cleaved PARP positive nuclei fraction” value in experiment [7] and in experiment [8] were 66.7% and 50.8%, respectively.

For the compound `N.N.[Cl][Pt][Cl]` [cisplatin] + O=C(Nc1ccccc1)c1cc([N+](=O)[O-])ccc1Cl [GW9662] (first compound 1.6 µM, partner dose 2 µM), the “cleaved PARP positive nuclei fraction” value turned out to be 184% in experiment [1]; 42.1% in experiment [2]; 107% in experiment [3]; 214% in experiment [4]; 60.2% in experiment [5]; 346% in experiment [6]. Also, the “cleaved PARP positive nuclei fraction” value in experiment [7] came out at 37.1%; in experiment [8], 48.1%.

For `C[C@]1(O)C[C@@H](c2nc(-c3ccc4ccc(-c5ccccc5)nc4c3)c3c(N)nccn32)C1` + O=C(Oc1ccc([N+](=O)[O-])cc1)N1CCC(C(O)(c2ccc3c(c2)OCO3)c2ccc3c(c2)OCO3)CC1 [JZL184] (first compound 0.4 µM, partner dose 1 µM), the “cleaved PARP positive nuclei fraction” value was determined as 147% in experiment [1]; 42.1% in experiment [2]; 131% in experiment [3]; 114% in experiment [4]; 149% in experiment [5]; 107% in experiment [6]. The “cleaved PARP positive nuclei fraction” value in experiment [7] was 35%; in experiment [8], 116%.

Regarding `Cn1c(=O)n(-c2ccc(C(C)(C)C#N)cc2)c2c3cc(-c4cnc5ccccc5c4)ccc3ncc21` + O=C(Oc1ccc([N+](=O)[O-])cc1)N1CCC(C(O)(c2ccc3c(c2)OCO3)c2ccc3c(c2)OCO3)CC1 [JZL184] (first compound 0.004 µM, partner dose 1 µM), the “cleaved PARP positive nuclei fraction” value in experiment [1] was 111%; in experiment [2] it was 42.9%; in experiment [3], 128%; in experiment [4] it was 107%; in experiment [5], 93.9%; in experiment [6] it was 108%. In addition, the “cleaved PARP positive nuclei fraction” value in experiment [7] was 99.1%; in experiment [8] it was 123%.

As to `C[C@@H](N)c1ccc(C(=O)Nc2ccnc3[nH]ccc23)cc1` + Cc1cc(SCc2sc(-c3ccc(C(F)(F)F)c(F)c3)nc2C)ccc1OCC(=O)O [GW0742] (first compound 0.4 µM, partner dose 2 µM), the “cleaved PARP positive nuclei fraction” value in experiment [1] came to 118%; in experiment [2] it was 38.4%; in experiment [3], 200%; in experiment [4], 139%; in experiment [5], 59.7%; in experiment [6], 151%. Moreover, the “cleaved PARP positive nuclei fraction” value came out at 30.4% in experiment [7] and 1130% in experiment [8].

As to `Cn1cc(C2=C(c3cn(C4CCN(Cc5ccccn5)CC4)c4ccccc34)C(=O)NC2=O)c2ccccc21` [Enzastaurin] + Oc1cc(-c2nc(-c3ccccc3)[nH]c2-c2ccncc2)ccc1Cl [L779450] (first compound 0.8 µM, partner dose 0.2 µM), the “cleaved PARP positive nuclei fraction” value in experiment [1] is 103%; in experiment [2], 27.3%; in experiment [3] it was 73.6%; in experiment [4] it was 110%; in experiment [5] it was 98.2%; in experiment [6], 177%. The “cleaved PARP positive nuclei fraction” value in experiment [7] is 70.7%; in experiment [8] it was 20%.

Consider `N.N.[Cl][Pt][Cl]` [cisplatin] + N#Cc1c(O)c2c(-c3ccc(-c4ccccc4O)cc3)csc2[nH]c1=O [A769662] (first compound 1.6 µM, partner dose 2 µM), for which the “cleaved PARP positive nuclei fraction” value came to 103% in experiment [1]; 84.8% in experiment [2]; 48.8% in experiment [3]; 88.8% in experiment [4]; 87.4% in experiment [5]; 55.2% in experiment [6]. Further, the “cleaved PARP positive nuclei fraction” value in experiment [7] is 34.9%; in experiment [8] it was 162%.
